# Measured values published in article PMC6890460.
# The chains behind the UniProt entries cited, without tags or fusion partners.
# UniProt Q14980: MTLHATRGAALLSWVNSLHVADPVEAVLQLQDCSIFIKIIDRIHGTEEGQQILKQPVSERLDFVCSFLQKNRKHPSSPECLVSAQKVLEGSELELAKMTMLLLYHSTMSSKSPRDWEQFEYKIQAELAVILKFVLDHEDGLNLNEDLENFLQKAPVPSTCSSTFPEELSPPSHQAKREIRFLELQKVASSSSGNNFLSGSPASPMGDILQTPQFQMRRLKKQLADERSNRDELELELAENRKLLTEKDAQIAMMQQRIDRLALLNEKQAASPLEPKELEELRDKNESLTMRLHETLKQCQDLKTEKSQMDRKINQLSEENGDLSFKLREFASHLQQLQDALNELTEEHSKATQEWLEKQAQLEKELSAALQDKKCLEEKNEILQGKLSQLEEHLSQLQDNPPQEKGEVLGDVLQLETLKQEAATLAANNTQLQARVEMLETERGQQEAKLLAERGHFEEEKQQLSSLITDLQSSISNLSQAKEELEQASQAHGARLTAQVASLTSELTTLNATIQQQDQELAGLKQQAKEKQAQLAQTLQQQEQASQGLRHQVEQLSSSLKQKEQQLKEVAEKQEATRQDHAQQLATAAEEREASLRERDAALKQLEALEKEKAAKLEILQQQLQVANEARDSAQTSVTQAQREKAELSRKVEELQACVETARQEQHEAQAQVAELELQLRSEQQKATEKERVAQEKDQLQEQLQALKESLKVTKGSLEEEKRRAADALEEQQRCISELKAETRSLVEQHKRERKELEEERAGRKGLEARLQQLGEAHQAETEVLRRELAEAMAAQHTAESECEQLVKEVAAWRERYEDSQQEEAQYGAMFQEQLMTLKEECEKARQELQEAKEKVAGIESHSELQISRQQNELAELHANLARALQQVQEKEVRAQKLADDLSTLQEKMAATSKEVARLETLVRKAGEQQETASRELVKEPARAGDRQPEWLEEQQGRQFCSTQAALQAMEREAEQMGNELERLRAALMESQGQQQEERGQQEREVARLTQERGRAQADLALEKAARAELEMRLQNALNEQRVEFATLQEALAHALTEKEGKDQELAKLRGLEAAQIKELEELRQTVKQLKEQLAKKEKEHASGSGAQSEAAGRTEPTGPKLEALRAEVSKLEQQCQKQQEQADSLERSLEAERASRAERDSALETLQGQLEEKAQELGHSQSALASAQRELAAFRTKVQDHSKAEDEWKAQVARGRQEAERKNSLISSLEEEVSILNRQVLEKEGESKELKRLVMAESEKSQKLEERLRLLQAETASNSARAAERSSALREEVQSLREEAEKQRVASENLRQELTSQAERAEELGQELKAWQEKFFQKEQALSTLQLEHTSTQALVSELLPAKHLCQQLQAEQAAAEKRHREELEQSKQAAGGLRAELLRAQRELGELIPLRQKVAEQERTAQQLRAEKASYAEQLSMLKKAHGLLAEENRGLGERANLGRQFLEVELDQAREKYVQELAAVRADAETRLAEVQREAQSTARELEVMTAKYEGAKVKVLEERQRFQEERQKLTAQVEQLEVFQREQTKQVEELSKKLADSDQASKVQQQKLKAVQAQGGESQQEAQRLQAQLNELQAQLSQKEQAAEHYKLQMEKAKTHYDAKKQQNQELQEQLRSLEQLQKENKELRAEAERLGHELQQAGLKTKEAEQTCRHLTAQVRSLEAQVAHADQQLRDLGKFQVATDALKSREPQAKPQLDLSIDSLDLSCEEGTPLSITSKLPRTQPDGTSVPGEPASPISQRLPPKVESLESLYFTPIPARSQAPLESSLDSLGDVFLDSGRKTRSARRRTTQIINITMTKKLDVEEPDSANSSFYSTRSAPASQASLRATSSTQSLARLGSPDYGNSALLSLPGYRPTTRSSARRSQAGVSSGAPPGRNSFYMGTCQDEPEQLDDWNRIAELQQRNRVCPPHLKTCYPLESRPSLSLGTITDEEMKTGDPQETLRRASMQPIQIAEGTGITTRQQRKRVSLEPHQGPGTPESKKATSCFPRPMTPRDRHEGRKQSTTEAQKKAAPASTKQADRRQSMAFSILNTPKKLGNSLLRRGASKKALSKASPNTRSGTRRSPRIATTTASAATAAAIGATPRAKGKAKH
# Results are given in words; binding and its absence hold for the method and conditions named. In cells and extracts the contact can be indirect. Some results given as binding are weak or reduced against the parent protein; the word gives no strength.
# T1: full-length human occludin (hOCLN-wt) (human (endogenous in H9 hESC)) (UniProt Q16625)
# T1 sequence: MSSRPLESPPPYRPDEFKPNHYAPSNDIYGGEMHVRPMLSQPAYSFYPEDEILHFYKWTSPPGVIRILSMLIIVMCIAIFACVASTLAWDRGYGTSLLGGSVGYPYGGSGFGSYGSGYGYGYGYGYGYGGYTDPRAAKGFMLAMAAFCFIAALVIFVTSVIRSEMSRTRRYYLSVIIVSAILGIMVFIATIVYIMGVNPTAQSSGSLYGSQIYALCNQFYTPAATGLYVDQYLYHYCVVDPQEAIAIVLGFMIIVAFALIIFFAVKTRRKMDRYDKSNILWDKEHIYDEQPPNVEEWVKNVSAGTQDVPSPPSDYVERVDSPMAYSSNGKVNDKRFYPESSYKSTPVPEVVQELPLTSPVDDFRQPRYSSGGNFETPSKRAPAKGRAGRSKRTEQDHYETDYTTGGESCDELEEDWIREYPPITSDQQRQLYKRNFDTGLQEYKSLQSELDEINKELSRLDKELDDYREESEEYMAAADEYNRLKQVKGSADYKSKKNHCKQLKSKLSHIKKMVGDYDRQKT
# Columns and labels:
# [1] = target: T1, full-length human occludin (hOCLN-wt) (human (endogenous in H9 hESC)); assay: co-IP; endogenous proteins from hESC lysates; IP with anti-NuMA, anti-Ran or C-terminus anti-OCLN antibody, immunoblot; input about 3% of total lysate; non-specific IgG as negative control
# [2] = target: NuMA (human (endogenous in H9 hESC)) (UniProt Q14980); assay: as above
Molecule,binding [1],binding [2]
NuMA (from UniProt Q14980 1-2115),binds,
"full-length human occludin (hOCLN-wt) (protein, UniProt Q16625 1-522) MSSRPLESPPPYRPDEFKPNHYAPSNDIYGGEMHVRPMLSQPAYSFYPEDEILHFYKWTSPPGVIRILSMLIIVMCIAIFACVASTLAWDRGYGTSLLGGSVGYPYGGSGFGSYGSGYGYGYGYGYGYGGYTDPRAAKGFMLAMAAFCFIAALVIFVTSVIRSEMSRTRRYYLSVIIVSAILGIMVFIATIVYIMGVNPTAQSSGSLYGSQIYALCNQFYTPAATGLYVDQYLYHYCVVDPQEAIAIVLGFMIIVAFALIIFFAVKTRRKMDRYDKSNILWDKEHIYDEQPPNVEEWVKNVSAGTQDVPSPPSDYVERVDSPMAYSSNGKVNDKRFYPESSYKSTPVPEVVQELPLTSPVDDFRQPRYSSGGNFETPSKRAPAKGRAGRSKRTEQDHYETDYTTGGESCDELEEDWIREYPPITSDQQRQLYKRNFDTGLQEYKSLQSELDEINKELSRLDKELDDYREESEEYMAAADEYNRLKQVKGSADYKSKKNHCKQLKSKLSHIKKMVGDYDRQKT",,binds
